From PMC8023213

B1: BS1-cYFP (protein, UniProt A0A190V5K9 1-330)
chain: MNGGSTVSFRSILDRPLNQLTEDDISQLTREDCRRFLKDKGMRRPSWNKSQAIQQVISLKALLEPTDDDIPATVGVGVSSAIHHHHHHHPPQPPPKALDPEDTALELQKSTSPVAERPTETNDANVVNNPGGCAPSGSFGQMTIFYCGKVNVYDGVSPDKARSIMQLAAACPSSFPQDNPSNKNAAVWASPCNLPIDKEVLFPTDTAILQVAQTDKMVEYPLQYREKGSTARDADVEGQASRKVSLQRYLEKRKDRGRSKGKKLTGITSSNFEMYLNLPVKLHASNGNSSRSSTDSPPQPRLPLVSSGSAENQPKVTLPIDLNDKDVQEC
B2: BIG SEEDS1 (BS1), yeast two-hybrid prey (protein, UniProt A0A190V5K9 1-330)
chain: B1 chain

Experiments:
[1] = target: MIO1-nYFP (M. truncatula); test: split reporter; BiFC: N-terminal YFP and C-terminal YFP fusions co-infiltrated 1:1 by A. tumefaciens into tobacco leaves; fluorescence at 48 h by confocal microscopy
[2] = target: WD40 repeat domain of MIO1/SLB1, yeast two-hybrid bait (M. truncatula); test: two-hybrid; bait in pGBKT7 and prey in pGADT7 co-transformed into Y2H Gold yeast; grown on SD/-Leu-Trp three days at 30 °C; interaction detected on SD/-Ade/-His/-Leu/-Trp

Binder | binding [1] | binding [2]
B1 | binds | 
B2 |  | binds

No constants are given. Whether binding was seen depends on the method and setting. Binding can be weak; no strength is given. For some assays here: Binding seen in cells or lysates may run through a third protein. For some assays here: Where a sequence is shown, tags or fusion partners need not be part of it.
